PubChem BioAssay AID602481 (Broad Institute, 2012)
The whole screen tested about 360,000 compounds, of which about 340 (0.094%) were called active. Inconclusive means that the source gave no clear call. Such entries were picked first, then a sample of the others. No stated cut-off is given here; in the data, active means inhibition above about 40%; inconclusive means no clear call, values can overlap the other calls; inactive means below that.

System: 7,8-diaminopelargonic acid synthase BioA (Mycobacterium tuberculosis)
Assay: M. tuberculosis BioA enzyme inhibitors, primary screen, biochemical, plate reader, single point, HTS (AID 602481)
Conditions: purified M. tuberculosis BioA enzyme, at 9.99 µM, stronger effect = higher value

Compound	inhibition
COc1ccc(-c2nc(CS(=O)CC(=O)NC(C)CCc3ccccc3)c(C)o2)cc1OC (stereo unspecified)	inactive: 4.18%
O=C(N/N=C/C(Br)=C/c1ccccc1)c1cccnc1	inconclusive: 44%
CC(C)NC(=O)N[C@H]1C=C[C@@H](CC(=O)N2CCCCC2)O[C@H]1CO	inactive: 0.391%
CC1(C)Cc2c(cnn2-c2cccc(F)c2)C(NC(=O)c2csnn2)C1 (stereo unspecified)	inconclusive: 41.8%
CC(=O)c1ccc(C(=O)N2CCCC(CCC(=O)N(C)CCc3ccccn3)C2)s1 (stereo unspecified)	active: 66.1%
C/C=C/c1ccc2c(c1)O[C@@H](CN(C)C(=O)Nc1ccccc1)[C@H](C)CN([C@H](C)CO)S2(=O)=O	active: 41.7%
COc1ccc(C2(CNC(=O)c3cccc([N+](=O)[O-])c3)CCCCC2)cc1OC	inconclusive: 42.7%
CCOC(=O)c1cccc(NC(=O)CN(C)S(=O)(=O)c2cnc[nH]2)c1	inconclusive: 40.4%
O=C(Nc1ccc(F)c(Cl)c1)C1CCN(S(=O)(=O)c2cccnc2)CC1	inconclusive: 42.8%
COc1cc2c(cc1NC(=O)c1cccnc1)CCCC2	active: 55.9%
O=C(Nc1cccnc1)c1ccc(COc2ccccc2Cl)o1	inconclusive: 41%
Cn1nccc1/C=N\NC(=O)c1ccc(Cl)cc1	active: 69.1%
CC(=O)Nc1ccc2c(c1)C(=O)N(C)[C@@H]1CC[C@H](CC(=O)NCCCN3CCOCC3)O[C@@H]1CO2	inactive: -1.32%
CCCCCCCCN1[C@@H](CC(=O)O)c2cc(C(F)(F)F)ccc2S1(=O)=O	inactive: 1.46%
CCc1ccc(OCC(=O)NNC(=S)NC(=O)C2CC2)c(Br)c1	inactive: 1.08%
CCc1cc(=O)oc2c(C)c(OC(C)C(=O)NCCCN3CCOCC3)ccc12 (stereo unspecified)	inactive: 0.435%
COCc1cc(=O)n2[nH]c(-c3cccs3)cc2n1	inactive: 0.12%
Cc1cccc(-n2c(O)c(C=NCCCN3CCOCC3)c3ccccc3c2=O)c1	inconclusive: 40.6%
CC(=O)N1CCN(c2nc(-c3ccco3)c3c(c2C#N)CC(C)(C)SC3)CC1	inconclusive: 40.1%
NC(=O)C1CCN(C(=O)COc2ccc3ccc(=O)oc3c2)CC1	inconclusive: 41.8%
O=C(Nc1cccnc1)c1cnc2ccccc2n1	inconclusive: 43.6%
CC(C)NC(=O)N(C)C[C@H]1OCCCC[C@H](C)Oc2ccc(NC(=O)CCC(F)(F)F)cc2C(=O)N([C@H](C)CO)C[C@@H]1C	inactive: -0.795%
CCOC(=O)N1CCN(c2ccc(Cl)cc2)CC1	inactive: -2%
O=C(CCn1c(=O)[nH]c2ccsc2c1=O)N1CCN(c2cccc(Cl)c2)CC1	inconclusive: 40.5%

5 structures from above, sorted by molecular weight, high to low.
Compound	inhibition
CC(=O)Nc1ccc2c(c1)C(=O)N(C)[C@@H]1CC[C@H](CC(=O)NCCCN3CCOCC3)O[C@@H]1CO2	inactive: -1.32%
C/C=C/c1ccc2c(c1)O[C@@H](CN(C)C(=O)Nc1ccccc1)[C@H](C)CN([C@H](C)CO)S2(=O)=O	active: 41.7%
CCc1ccc(OCC(=O)NNC(=S)NC(=O)C2CC2)c(Br)c1	inactive: 1.08%
CC(C)NC(=O)N[C@H]1C=C[C@@H](CC(=O)N2CCCCC2)O[C@H]1CO	inactive: 0.391%
O=C(Nc1cccnc1)c1cnc2ccccc2n1	inconclusive: 43.6%

Further records follow.

Compound	inhibition
Cc1ccc(S(=O)(=O)N[C@H]2CC[C@H](CCn3cc(C4CCCC4)nn3)O[C@@H]2CO)cc1	inactive: 0.57%
CCc1nc2ccc(Br)cc2c(=O)n1-c1ccccc1C(F)(F)F	active: 59.9%
CC(C)Sc1nc2c(c(=O)n1-c1ccc(F)cc1)SCC2	inconclusive: 43.2%
CCOC(=O)c1c(C)n(Cc2ccccc2)c2ccc(OCC(O)CN3C(=O)CNC3=O)cc12 (stereo unspecified)	inconclusive: 42.3%
CCN(CC)CCNC(=O)c1ccc(NC(=O)c2c(C)nn(-c3ccc(F)cc3)c2Cl)cc1	inconclusive: 41.4%
O=C(NCC1CCCCC1)[C@@H]1[C@@H](CO)[C@@H]2Cn3c(cccc3=O)[C@H]1N2C(=O)c1ccncc1	inactive: -0.707%
CCc1cc(=O)oc2c3c(cc(OCC(=O)NCCCn4ccnc4)c12)OC(C)(C)CC3	inconclusive: 42.6%
CCN1CCN(C(=S)Nc2cc(C(=O)OC)ccc2C(=O)OC)CC1	inconclusive: 44.3%
Nn1c(SCc2ccc(F)cc2)nnc1-c1cccnc1	inconclusive: 41.6%
Cc1cc(C)n2nc(SCC(=O)N3CCN(c4ccc(F)cc4)CC3)nc2n1	inconclusive: 44%
CN(C)C(=O)C[C@@H]1C[C@@H]2c3cc(NC(=O)c4cccnc4)ccc3O[C@@H]2[C@@H](CO)O1	active: 47.7%
Cn1c(=O)oc2cc(C(=O)c3ccccc3)ccc21	inconclusive: 42.8%
Cc1nc2c(cc1NC(=O)C(C)(C)C)nc(C)n2Cc1ccccc1	inconclusive: 46.5%
Cc1nc2ncnn2c(C)c1Cc1ccc(Cl)cc1	inconclusive: 41.1%
CC(=O)O[C@]1(C(C)=O)CC[C@H]2[C@@H]3C=C(Cl)C4=CC(=O)CC[C@]4(C)[C@H]3CC[C@@]21C	inconclusive: 41.2%
C=CCOc1ccc2c(CC)cc(=O)oc2c1C	inactive: 2.33%
COc1cc2cc(Oc3ccc4ccc(=O)oc4c3)c(=O)oc2cc1OC(C)=O	inactive: -0.952%
Nn1c(SC/C=C/c2ccccc2)nnc1-c1cccnc1	active: 109%
O=C(/C=C/c1cc(Br)ccc1F)Nc1cccnc1	inactive: 31.9%
CC(C)NC(=O)Nc1ccc2c(c1)C(=O)N([C@H](C)CO)C[C@@H](C)[C@H](CN(C)CC1CCCCC1)OCCCC[C@@H](C)O2	inactive: 1.98%
COc1ccc(NC(=O)c2cnn(-c3ccccc3)c2C)cc1OC	inconclusive: 42.5%
CC(=O)c1ccc(N2CCN(C(=O)c3cccs3)CC2)c(F)c1	inconclusive: 40.6%
CCN(CC)CC(=O)Nc1c2c(nc3ccccc13)N(C)CC2	inactive: 0.368%
Cc1c(N=O)c(-c2ccccc2)n(O)[n+]1[O-]	inconclusive: 43.6%

Compound	inhibition
Cc1ccc(-c2nnc(OCc3cccnc3)c3ccccc23)cc1	inconclusive: 45.9%
COc1ccccc1S(=O)(=O)N1CC[C@@H]2[C@H](CO)Nc3ccc(-c4ccccc4)cc3[C@@H]21	active: 43.2%
C[C@@H]1CCCCO[C@@H](CN(C)S(=O)(=O)c2cccs2)[C@@H](C)CN([C@H](C)CO)C(=O)c2cc(NC(=O)CCCCCC(=O)Nc3ccccc3N)ccc2O1	inactive: -0.138%
O=C(N/N=C/c1ccc(-c2ccccc2[N+](=O)[O-])o1)c1cccnc1	inconclusive: 40.3%
COc1ccc(-n2c(SCC(N)=O)nc3sc4c(c3c2=O)CCN(C)C4)cc1	inconclusive: 41.1%
Cc1ccc(C(=O)Nc2cccnc2)cc1Cl	inconclusive: 43.6%
COc1ccccc1-n1c(SCC(=O)N(C)C2CCS(=O)(=O)C2)nc2ccccc2c1=O (stereo unspecified)	inconclusive: 40.8%
CCOC(=O)c1c(N)sc(C(C)=O)c1C	inconclusive: 40.7%
O=C(Nc1ccc2oc(-c3cccnc3)nc2c1)c1cccnc1	inconclusive: 40.6%
Nc1cc(C(=O)O)ccc1Nc1ccc(F)c(F)c1	inconclusive: 43.6%
Cc1ccc(CSc2nnc(-c3cccnc3)n2N)cc1	inconclusive: 43%
CC1Cc2nc(SCC(=O)N3CCOCC3)n(-c3ccccc3)c(=O)c2S1 (stereo unspecified)	active: 63%
CSc1nnc(-c2sc(-c3ccccc3)nc2C)n1C	inconclusive: 40.6%
CCn1cc(C(=O)NCCCN2CCCCCC2)c(=O)c2cc(S(=O)(=O)N3CCc4ccccc4C3)ccc21	inconclusive: 42.3%
CN(Cc1ccccc1)C(=O)c1ccc(NC(=O)C2=CSCCO2)cc1	inconclusive: 43.3%
CO[C@H]1CN(C)C(=O)c2cc(NC(=O)Cc3ccccc3)ccc2OC[C@@H](C)N(CC2CC2)C[C@H]1C	inactive: -0.321%
CC(=O)c1c(C)[nH]c(C(=O)OCc2cc(=O)n3cc(Br)ccc3n2)c1C	inconclusive: 40.7%
O=C(Nc1ccc2c(c1)[C@H]1C[C@@H](CC(=O)N3CCc4ccccc4C3)O[C@H](CO)[C@H]1O2)c1cccnc1	active: 55%
C[C@@H]1CN([C@@H](C)CO)C(=O)c2cc(NC(=O)c3ccncc3)ccc2O[C@H]1CN(C)C(=O)Nc1ccc(F)cc1	inactive: 3.54%
CCc1nn(CC(=O)N2CCN(CC)CC2)c(=O)c2cc3sccc3n12	inconclusive: 42.4%
Cc1ccc(S(=O)(=O)N(C)C[C@@H]2Oc3ncc(-c4ccncc4)cc3C(=O)N([C@H](C)CO)C[C@@H]2C)cc1	inactive: -4.29%
CCCOC(=O)c1ccc(NC(=O)c2cc(OC)c(OC)c(OC)c2Br)cc1	inactive: -0.991%
COc1ccc(-n2c(SCC(=O)Nc3ccc4c(c3)OCO4)nc3c(c2=O)SCC3)cc1	inconclusive: 40.8%
